This data set concerns Bombus terrestris. The data set can be described thus: Acute oral insecticide bioassay of bumble bees, with or without PBO. The following applies: slope of dose response. Here is the method:
Acute contact insecticide assays were performed on female A. mellifera following standard methods OECD 2013 [30]. Bioassays of B. terrestris were based on the OECD guidelines developed for honeybees but with bees assayed in individual Nicot cages. Bees were starved of sucrose solution for up to 2 hr to encourage feeding during the experiment. […] Controls were fed a solution of sucrose containing a concentration of acetone matching that of the highest treatment concentration. After 4-6 hr the syringes were assessed to see if bees had consumed the insecticide-sucrose solution. Those that had not consumed all of the solution were excluded from the experiment. Mortality was assessed 48 hr after feeding and lethal concentrations (LC50 values) were calculated by probit analysis using Genstat version 16 (VSN International). For synergist bioassays, B. terrestris or A. mellifera workers were first treated with 20 μg of piperonyl butoxide or 1 μg of aminobenzotriazole applied to the dorsal thorax. Synergist bioassays included an additional control group treated only with the synergist. 1 hr after synergist application, bees were then treated with the appropriate insecticide dosage as above.

The structures appear in SMILES notation.

`O=[N+]([O-])NC1=NCCN1Cc1ccc(Cl)nc1` [imidacloprid]: the Slope is, setting by setting: (no synergist) 1.5; (synergist PBO) 1.9.
The like results for `N#C/N=C1\SCCN1Cc1ccc(Cl)nc1` [thiacloprid] were, in that order, 1.8 and 1.4.

Values taken from article PMC5887109, “Unravelling the Molecular Determinants of Bee Sensitivity to Neonicotinoid Insecticides” (Current Biology, 2018).
